# From PubChem BioAssay AID330 (DTP/NCI, 2004)
# The list shows only some results of the screen, not a fair sample: it is rich in T/C values a quarter to a half above the control, in often repeated tests (any T/C) and in doses without a T/C. Other doses and runs of a compound stand elsewhere. T/C is the treated group as % of the vehicle group. Some doses have a count of surviving animals in place of a T/C: the source files T/C as zero there, which appears to mark a toxic dose or a test without result, not a measured value. Some doses without a T/C left all or most animals alive at the check, yet need not have been tolerated: the source hardly ever lists a survival T/C far under the control, and the zero likely stands for such cases as well. Survivors were counted at the toxicity check, usually on the fifth day, unless a day is given; later deaths do not show. Schedules are NCI's codes, taken here to give the interval after Q, in days (D) or hours (H), and the number of doses after X. Some entries were tested several times; the results are listed from low to high. For survival time, this PubChem deposit counts one and a half times the control or more as active, and values a quarter to a half above the control carry no call in these data; other NCI protocols may use other cut-offs.
# System: P388 leukemia ip, CD2F1 mice, survival T/C
# Experiment: NCI In Vivo Anticancer Drug Screen. Data for tumor model P388 Leukemia (intraperitoneal) in CD2F1 (CDF1) mice
# Settings: T/C endpoint: median survival time, higher T/C = longer survival
# [1] = dose: 200.0 mg/kg/injection, schedule: Q01DX005 (ip), vehicle: Klucel (hydroxypropylcellulose) (HPC)
# [2] = dose: 240.0 mg/kg/injection, schedule: Q01DX005 (ip), vehicle: Klucel (hydroxypropylcellulose) (HPC)
# [3] = dose: 200.0 mg/kg/injection, schedule: Q01DX009 (ip), vehicle: saline with Tween-80
# [4] = dose: 200.0 mg/kg/injection, schedule: Q01DX005 (ip), vehicle: saline with Tween-80
smiles,measurement,setting,value
N#CC1N(C(=O)Oc2ccccc2)c2ccccc2N1C(=O)Oc1ccccc1,survivor count,"dose: 30.0 mg/kg/injection, schedule: Q01DX005 (ip), vehicle: saline with Tween-80",6 of 6
same,survivor count,"dose: 60.0 mg/kg/injection, schedule: Q01DX005 (ip), vehicle: saline with Tween-80",6 of 6
same,survivor count,"dose: 120.0 mg/kg/injection, schedule: Q01DX005 (ip), vehicle: saline with Tween-80",5 of 6
same,survivor count,"dose: 240.0 mg/kg/injection, schedule: Q01DX005 (ip), vehicle: saline with Tween-80",6 of 6
O=C1c2ccccc2C(=O)N1CC[P+](Cc1ccccc1)(Cc1ccccc1)Cc1ccccc1,survivor count,"dose: 200.0 mg/kg/injection, schedule: Q01DX009 (ip), vehicle: other",3 of 6
O=c1[nH]c(=S)[nH]nc1/C=C/c1cccc(I)c1,survivor count,"dose: 100.0 mg/kg/injection, schedule: Q04DX002 (ip), vehicle: saline",3 of 6
same,survivor count,"dose: 400.0 mg/kg/injection, schedule: Q04DX002 (ip), vehicle: saline",4 of 6
CCOc1ccc(C(C)c2cc3c(cc2OC)OCO3)cc1C (stereo unspecified),T/C,[1],144 % of control
Cc1cc(Cl)c2cc3c(cc2n1)CCCC3,survivor count,[2],0 of 6
S=C(Nc1ccccn1)c1ccccn1,survivor count,[3],1 of 6
same,survivor count,"dose: 400.0 mg/kg/injection, schedule: Q01DX009 (ip), vehicle: saline with Tween-80",0 of 6
Cc1ccc2nc(N/N=C(\c3ccccc3)c3ccccn3)cc(C)c2c1,survivor count,[4],6 of 6
O=NN(CCCl)C(=O)N(CCCl)C(=O)Oc1c(Cl)cc(Cl)cc1Cl,T/C,"dose: 25.0 mg/kg/injection, schedule: Q01DX001 (ip), vehicle: saline with Tween-80",131 % of control
same,T/C,"dose: 50.0 mg/kg/injection, schedule: Q01DX001 (ip), vehicle: saline with Tween-80",136 and 140 % of control
COc1ccc(Nc2ccc([N+](=O)[O-])c3nonc23)cc1,survivor count,[4],6 of 6
CCN(CC)CC(O)c1c(OC)ccc2ccccc12 (stereo unspecified),survivor count,"dose: 100.0 mg/kg/injection, schedule: Q01DX005 (ip), vehicle: saline",0 of 5
same,survivor count,"dose: 200.0 mg/kg/injection, schedule: Q01DX005 (ip), vehicle: saline",0 of 5
CCOC(=O)CCC(NC(=O)c1ccc(CBr)cc1)C(=O)OCC (stereo unspecified),survivor count,"dose: 200.0 mg/kg/injection, schedule: Q01DX009 (ip), vehicle: distilled water + Tween-80",1 of 6
COC(=O)[C@@]12OC[C@]34[C@H]([C@@H](O)[C@@H]1O)[C@@]1(C)CC(=O)C(OC(=O)CC(=O)OC5=C(C)[C@@H]6C[C@H]7OC(=O)[C@H](OC(=O)/C=C(\C)C(C)C)[C@H]8[C@]9(C(=O)OC)OC[C@]78[C@H]([C@@H](O)[C@@H]9O)[C@@]6(C)CC5=O)=C(C)[C@@H]1C[C@H]3OC(=O)[C@H](OC(=O)/C=C(\C)C(C)C)[C@@H]24,T/C,"dose: 0.38 mg/kg/injection, schedule: Q01DX009 (ip), vehicle: saline + Tween-80 + alcohol",128 % of control
same,T/C,"dose: 0.75 mg/kg/injection, schedule: Q01DX005 (ip), vehicle: saline + Tween-80 + alcohol",127 % of control
same,T/C,"dose: 0.75 mg/kg/injection, schedule: Q01DX009 (ip), vehicle: saline + Tween-80 + alcohol",146 % of control
same,T/C,"dose: 1.5 mg/kg/injection, schedule: Q01DX005 (ip), vehicle: saline + Tween-80 + alcohol",129 and 132 % of control
same,T/C,"dose: 1.5 mg/kg/injection, schedule: Q01DX009 (ip), vehicle: saline + Tween-80 + alcohol",140 % of control
same,T/C,"dose: 3.0 mg/kg/injection, schedule: Q01DX005 (ip), vehicle: saline + Tween-80 + alcohol",125 and 148 % of control
same,survivor count,"dose: 3.0 mg/kg/injection, schedule: Q01DX009 (ip), vehicle: saline + Tween-80 + alcohol",0 of 6
same,T/C,"dose: 6.0 mg/kg/injection, schedule: Q01DX005 (ip), vehicle: saline + Tween-80 + alcohol",138 and 141 % of control
same,survivor count,"dose: 6.0 mg/kg/injection, schedule: Q01DX009 (ip), vehicle: saline + Tween-80 + alcohol",0 of 6
c1ccc(Cc2ncnc3nc[nH]c23)cc1,T/C,"dose: 40.0 mg/kg/injection, schedule: Q01DX009 (ip), vehicle: saline with Tween-80",127 % of control
C[N+](C)(C)[N-]C(=N)c1ccccc1,survivor count,"dose: 200.0 mg/kg/injection, schedule: Q01DX001 (ip), vehicle: suspension in saline",1 of 6
same,survivor count,"dose: 400.0 mg/kg/injection, schedule: Q01DX001 (ip), vehicle: suspension in saline",0 of 6
COc1cccc2c1C(=O)c1c(O)c3c(c(O)c1C2=O)C[C@@](O)(C(=O)CO)C[C@@H]3OC1CC(N)CC(C)O1 (stereo partly specified),T/C,"dose: 0.1 mg/kg/injection, schedule: Q01DX009 (ip), vehicle: water",147 % of control
same,T/C,"dose: 0.78 mg/kg/injection, schedule: Q04DX003 (ip), vehicle: water",126 % of control
same,T/C,"dose: 1.56 mg/kg/injection, schedule: Q04DX003 (ip), vehicle: water",148 % of control
same,T/C,"dose: 1.8 mg/kg/injection, schedule: Q04DX003 (ip), vehicle: saline",145 % of control
same,survivor count,"dose: 2.5 mg/kg/injection, schedule: Q01DX009 (ip), vehicle: saline",8 of 8
same,survivor count,"dose: 3.13 mg/kg/injection, schedule: Q01DX009 (ip), vehicle: water",6 of 6
same,survivor count,"dose: 6.25 mg/kg/injection, schedule: Q01DX009 (ip), vehicle: water",4 of 6
same,T/C,"dose: 6.25 mg/kg/injection, schedule: Q04DX003 (ip), vehicle: water",129 % of control
same,survivor count,"dose: 12.5 mg/kg/injection, schedule: Q01DX009 (ip), vehicle: water",5 of 6
same,survivor count,"dose: 25.0 mg/kg/injection, schedule: Q01DX009 (ip), vehicle: water",0 of 6
CC1(O)c2ccccc2[P+](C)(c2ccccc2)c2ccccc21 (stereo unspecified),survivor count,"dose: 50.0 mg/kg/injection, schedule: Q01DX009 (ip), vehicle: saline with Tween-80",3 of 6 and 5 of 6
same,survivor count,"dose: 100.0 mg/kg/injection, schedule: Q01DX009 (ip), vehicle: saline with Tween-80",4 of 6
same,survivor count,[3],3 of 6
COCC12CN(C)C3C4C(OC)C1C3(C(OC)CC2O)C1CC2(O)C(OC)C(O)C4(OC(C)=O)C1C2OC(=O)c1ccccc1 (stereo unspecified),survivor count,"dose: 0.19 mg/kg/injection, schedule: Q01DX005 (ip), vehicle: Klucel (hydroxypropylcellulose) (HPC)",1 of 6
same,survivor count,"dose: 0.39 mg/kg/injection, schedule: Q01DX005 (ip), vehicle: Klucel (hydroxypropylcellulose) (HPC)",0 of 6
same,survivor count,"dose: 0.78 mg/kg/injection, schedule: Q01DX005 (ip), vehicle: Klucel (hydroxypropylcellulose) (HPC)",0 of 6
same,survivor count,"dose: 1.56 mg/kg/injection, schedule: Q01DX005 (ip), vehicle: Klucel (hydroxypropylcellulose) (HPC)",0 of 6
same,survivor count,"dose: 3.12 mg/kg/injection, schedule: Q01DX005 (ip), vehicle: Klucel (hydroxypropylcellulose) (HPC)",0 of 6
same,survivor count,"dose: 6.25 mg/kg/injection, schedule: Q01DX005 (ip), vehicle: Klucel (hydroxypropylcellulose) (HPC)",0 of 6
same,survivor count,"dose: 12.5 mg/kg/injection, schedule: Q01DX005 (ip), vehicle: Klucel (hydroxypropylcellulose) (HPC)",0 of 6
same,survivor count,"dose: 25.0 mg/kg/injection, schedule: Q01DX005 (ip), vehicle: Klucel (hydroxypropylcellulose) (HPC)",0 of 6
same,survivor count,"dose: 50.0 mg/kg/injection, schedule: Q01DX005 (ip), vehicle: Klucel (hydroxypropylcellulose) (HPC)",0 of 6
same,survivor count,"dose: 100.0 mg/kg/injection, schedule: Q01DX005 (ip), vehicle: Klucel (hydroxypropylcellulose) (HPC)",0 of 6
same,survivor count,[1],0 of 6
same,survivor count,"dose: 12.0 micrograms/kg/injection, schedule: Q01DX005 (ip), vehicle: Klucel (hydroxypropylcellulose) (HPC)",1 of 6
C=CCC(NC(=O)CCl)C(=O)O (stereo unspecified),survivor count,"dose: 200.0 mg/kg/injection, schedule: Q01DX009 (ip), vehicle: saline",3 of 6
CCOC(=O)CCC(=O)Oc1ccc2c(c1)C(=O)c1ccc(OC(=O)CCC(=O)OCC)cc1C2=O,survivor count,"dose: 15.0 mg/kg/injection, schedule: Q01DX005 (ip), vehicle: Klucel (hydroxypropylcellulose) (HPC)",6 of 6
same,survivor count,"dose: 30.0 mg/kg/injection, schedule: Q01DX005 (ip), vehicle: Klucel (hydroxypropylcellulose) (HPC)",6 of 6
same,survivor count,"dose: 60.0 mg/kg/injection, schedule: Q01DX005 (ip), vehicle: Klucel (hydroxypropylcellulose) (HPC)",6 of 6
same,survivor count,"dose: 120.0 mg/kg/injection, schedule: Q01DX005 (ip), vehicle: Klucel (hydroxypropylcellulose) (HPC)",6 of 6
same,survivor count,[2],5 of 6
